“Also recorded” adds a separate entry of the source. At least one compound was matched to its structure with a doubt left.
What was measured:
[1] = tested on: tumor growth with EGFR exon 20 insertions and T790M mutations; experiment: In vivo CDX and PDX mouse models, overall statement; design: species or system nude mice
Protocol: Assay 3. In vivo studies in cell line-derived (CDX) and patient derived xenografts (PDX) mouse models
Cells (H1975) or tissue pieces (LU0493 and LU0426) were implanted subcutaneously into the left armpit of nude mice. When the average tumor volume reached 100-150 mm^3, mice were randomized by tumor volume and treated with vehicle, compound 1 or poziotinib respectively. Tumor volume and body weight were measured twice per week. Mice were sacrificed on day 21 or day 28, and tumor volume and terminal body weight were recorded. The relative tumor volume, percent of treatment/control values and tumor growth inhibition were calculated and statistics was performed.
Terminal body weight changes were calculated as percentage of body changes from day 1 to day 21.

[2] = tested on: PC9 cells expressing luciferase; experiment: In vivo orthotopic brain PC9 xenograft mouse model; conditions: 28 days after dosing, oral
Protocol: Assay 4. In vivo orthotopic brain PC9 xenograft mouse model
3×10^5 PC9 cells expressing luciferase were injected to the mouse brain. Mice were randomized based on brain flurorescence intensity and body weight, and were orally administered vehicle or compound 1. Survival and body weights were monitored every day and mice with more than 20% body weight loss were sacrificed.

C=CC(=O)Nc1cc(Nc2nccc(-n3c(=O)n4c5c(cc(F)cc53)CCC4)n2)c(OC)cc1N(C)CCN(C)C [Compound 1, N-(2-((2-(dimethylamino)ethyl)(methyl)amino)-5-((4-(8-fluoro-2-oxo-5,6-dihydro-4H-imidazo[4,5,1-ij]quinolin-1(2H)-yl)pyrimidin-2-yl)amino)-4-methoxyphenyl)acrylamide]
blocking tumor growth compared to poziotinib, in words [1]: more effective in blocking tumor growth; also recorded: greater in vivo efficacy
survival / activity in PC9 orthotopic brain model, in words [2]: all mice receiving compound 1 survived; also recorded: active in PC9 orthotopic brain model
